Literature values, collected in US20210069213A1, “COMPOSITION AND METHOD OF TREATMENT FOR DRY A.M.D. (AGE RELATED MACULAR DEGENERATION)” (EYE CO PTY LTD, priority 2018, published 2021).
For at least one compound, name, drawing or mass did not settle the structure.

Tested on: anterior segment lesions
Conditions: topical; study of 121 patients; cited from earlier work

In the case of C[C@]12CCC(=O)C=C1CC[C@H]1[C@@H]3CC[C@](O)(C(=O)CO)[C@@]3(C)C[C@H](O)[C@@]12F [fludrocortisone, 9-alpha fluorohydrocortisone], the “clinical outcome for anterior segment lesions” value is given as “excellent outcomes”.
